No constants are given. Whether binding was seen depends on the method and setting. Some entries that bind do so weakly or less than the wild type. Tags and fused reporters may be left off the sequences shown.
How the values were obtained:
[1] = target: T1, Full-length S. pombe Tea2, unlabelled (S. pombe) (UniProt Q1MTQ1); assay: TIRF microscopy of purified fluorescent proteins on microtubules; plus-end-tracking reconstitution without PEG: 200 nM Mal3 or Mal3 construct, 20 nM Tea2, 150 nM Tip1 together on dynamic microtubules grown from surface-bound GMPCPP seeds; MRB80, 50 mM KCl, 14.5 µM tubulin, 0.5 µM rhodamine tubulin, 1 mM GTP, 2 mM ATP, 0.1% methylcellulose; both purified
T1 sequence: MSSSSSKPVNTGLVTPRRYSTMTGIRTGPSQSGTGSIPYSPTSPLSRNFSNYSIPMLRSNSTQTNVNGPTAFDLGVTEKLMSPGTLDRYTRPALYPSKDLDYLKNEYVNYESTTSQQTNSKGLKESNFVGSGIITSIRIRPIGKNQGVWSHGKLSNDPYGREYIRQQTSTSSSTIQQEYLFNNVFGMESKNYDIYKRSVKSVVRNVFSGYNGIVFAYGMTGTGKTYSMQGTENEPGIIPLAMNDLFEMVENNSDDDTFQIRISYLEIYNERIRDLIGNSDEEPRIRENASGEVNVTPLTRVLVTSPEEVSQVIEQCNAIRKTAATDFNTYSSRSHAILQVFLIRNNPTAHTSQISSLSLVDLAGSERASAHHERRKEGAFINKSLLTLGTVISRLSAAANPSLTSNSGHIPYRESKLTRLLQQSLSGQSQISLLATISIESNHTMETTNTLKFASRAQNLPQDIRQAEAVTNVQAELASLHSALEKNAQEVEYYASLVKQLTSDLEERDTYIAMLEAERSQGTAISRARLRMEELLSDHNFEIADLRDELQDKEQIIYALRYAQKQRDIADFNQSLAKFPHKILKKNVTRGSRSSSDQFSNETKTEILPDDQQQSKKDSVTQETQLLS

Mal3-Alexa647 (S. pombe) = target: T2, Mal3-Alexa647 (S. pombe) (UniProt Q10113); assay: as above
T2 sequence (chain, Alexa Fluor 647 (TFP ester labelling, sites not stated)): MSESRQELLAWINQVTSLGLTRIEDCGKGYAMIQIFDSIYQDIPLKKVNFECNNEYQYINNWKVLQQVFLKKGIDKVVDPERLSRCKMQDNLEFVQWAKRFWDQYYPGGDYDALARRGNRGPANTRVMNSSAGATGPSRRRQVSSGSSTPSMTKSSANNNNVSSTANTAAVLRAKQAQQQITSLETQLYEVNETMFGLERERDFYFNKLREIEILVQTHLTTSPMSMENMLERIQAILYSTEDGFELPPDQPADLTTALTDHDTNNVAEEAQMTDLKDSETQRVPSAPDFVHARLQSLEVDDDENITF

binding [1]: binds
binding (Mal3-Alexa647 (S. pombe)): binds
B1: Tip1:GFP (protein, UniProt P79065 1-461)
chain: MFPLGSVVEVITGERGFVRYAGEVENRKGVYVGLELLPEFAEFGKNRGVVDGREYFKTKNNEKTGIFVPFDKCKLASSISSSPSPKIDGTAASIGMGFPPMSPNLQSSIPRLTNVSSSSNLSMNTISSTALTPTEKILQKRIEDLLYERQNHQQQLEEVLATVDQLQSLVTNFNDQQDEVDELRERITLKEERIQQMRNEASQRRFEFKTTIECLEESSNRAIETYENRIAELEAQLEMYMSGKSEDDLLFSLQQERDYALNQVEILQERVDTLMKQKANSSTANEKLSHMESSSPTLTNASFESPKRGKGSNDLPENHPQRRQTLEFYEIEIEVLREKVEKLQALSDEKDFYISKLEKSLDRNDTTPVPSDEKLSNYAAEKENLVSRISELEHTIEQLTINNERDNERMSPAEFELETTQEVEENDSDSHDDEETWCEVCETNNHSLQECPTVFGSTDEA

Source: paper PMC9859754, “Multivalent interactions facilitate motor-dependent protein accumulation at growing microtubule plus-ends” (Nature Cell Biology, 2022)
